No constants are given. Whether binding was seen depends on the method and setting. In cells and extracts the contact can be indirect. Some entries that bind do so weakly or less than the wild type.

Protein sequences, listed by entry. Tags and fused reporters are not part of them.
UniProt Q02248: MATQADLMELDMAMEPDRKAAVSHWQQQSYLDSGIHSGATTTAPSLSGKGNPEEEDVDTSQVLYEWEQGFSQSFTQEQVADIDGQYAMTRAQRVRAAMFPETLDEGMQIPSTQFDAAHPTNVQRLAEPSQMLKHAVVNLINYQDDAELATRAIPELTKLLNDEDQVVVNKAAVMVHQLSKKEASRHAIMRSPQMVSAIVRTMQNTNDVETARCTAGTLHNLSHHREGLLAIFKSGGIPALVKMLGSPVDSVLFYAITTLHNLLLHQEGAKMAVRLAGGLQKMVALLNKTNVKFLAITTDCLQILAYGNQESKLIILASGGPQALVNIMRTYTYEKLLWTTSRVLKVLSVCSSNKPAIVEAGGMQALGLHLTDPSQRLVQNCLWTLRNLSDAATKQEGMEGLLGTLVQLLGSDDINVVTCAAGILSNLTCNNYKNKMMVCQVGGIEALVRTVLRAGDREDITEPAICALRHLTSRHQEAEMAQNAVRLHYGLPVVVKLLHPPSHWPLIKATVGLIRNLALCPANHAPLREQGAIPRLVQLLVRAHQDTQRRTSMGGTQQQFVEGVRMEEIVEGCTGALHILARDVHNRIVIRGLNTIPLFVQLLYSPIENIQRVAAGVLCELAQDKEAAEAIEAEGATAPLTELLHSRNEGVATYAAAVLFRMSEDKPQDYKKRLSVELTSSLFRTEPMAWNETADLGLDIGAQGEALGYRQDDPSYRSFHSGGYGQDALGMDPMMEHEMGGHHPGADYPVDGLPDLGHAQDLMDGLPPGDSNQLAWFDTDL

This passage reports binding results from publication PMC9995352.

Experiment [1] concerns the target T1, Vang-like 2 (Vangl2) planar cell polarity protein (mouse (endogenous in E9.5 embryonic neural tube)) (UniProt Q91ZD4).
T1 sequence: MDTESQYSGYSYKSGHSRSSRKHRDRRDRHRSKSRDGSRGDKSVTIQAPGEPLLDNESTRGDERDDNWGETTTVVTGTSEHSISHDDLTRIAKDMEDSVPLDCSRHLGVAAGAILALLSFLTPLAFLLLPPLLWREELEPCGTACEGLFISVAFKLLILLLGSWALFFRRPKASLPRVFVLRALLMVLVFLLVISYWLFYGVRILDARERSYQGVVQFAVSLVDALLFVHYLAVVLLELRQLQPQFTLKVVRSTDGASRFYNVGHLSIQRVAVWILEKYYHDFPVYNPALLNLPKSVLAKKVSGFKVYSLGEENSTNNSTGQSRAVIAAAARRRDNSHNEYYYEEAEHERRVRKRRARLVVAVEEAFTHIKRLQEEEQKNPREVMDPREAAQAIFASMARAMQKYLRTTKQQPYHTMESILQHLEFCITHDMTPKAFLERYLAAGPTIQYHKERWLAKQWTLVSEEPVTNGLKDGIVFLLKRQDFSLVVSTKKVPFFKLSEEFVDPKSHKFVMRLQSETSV
Description: co-IP; immunoprecipitation with goat anti-Vangl2 antibodies (control: normal goat IgG) from lysates of neural tubes of E9.5 ICR mouse embryos; lysis in PBS with 1% NP-40 and 10 μg/ml aprotinin; western blot of input (1.7%) and IP (~50%).

Experiment [2] deals with T2, Vang-like 2 (Vangl2) planar cell polarity protein (mouse (endogenous in E9.5 embryonic neural tube)), Q91ZD4.
T2 chain: T1 sequence
The description is as above. The following applies: remark: other sources report otherwise.

As to β-catenin (from UniProt Q02248 1-781), in experiment [1], the binding entry is recorded as “no binding”.

B1: N-cadherin (cadherin 2, CDH2), P15116 160-906 (protein)
chain: DWVIPPINLPENSRGPFPQELVRIRSDRDKNLSLRYSVTGPGADQPPTGIFIINPISGQLSVTKPLDRELIARFHLRAHAVDINGNQVENPIDIVINVIDMNDNRPEFLHQVWNGSVPEGSKPGTYVMTVTAIDADDPNALNGMLRYRILSQAPSTPSPNMFTINNETGDIITVAAGLDREKVQQYTLIIQATDMEGNPTYGLSNTATAVITVTDVNDNPPEFTAMTFYGEVPENRVDVIVANLTVTDKDQPHTPAWNAAYRISGGDPTGRFAILTDPNSNDGLVTVVKPIDFETNRMFVLTVAAENQVPLAKGIQHPPQSTATVSVTVIDVNENPYFAPNPKIIRQEEGLHAGTMLTTLTAQDPDRYMQQNIRYTKLSDPANWLKIDPVNGQITTIAVLDRESPNVKNNIYNATFLASDNGIPPMSGTGTLQIYLLDINDNAPQVLPQEAETCETPEPNSINITALDYDIDPNAGPFAFDLPLSPVTIKRNWTINRLNGDFAQLNLKIKFLEAGIYEVPIIITDSGNPPKSNISILRVKVCQCDSNGDCTDVDRIVGAGLGTGAIIAILLCIIILLILVLMFVVWMKRRDKERQAKQLLIDPEDDVRDNILKYDEEGGGEEDQDYDLSQLQQPDTVEPDAIKPVGIRRLDERPIHAEPQYPVRSAAPHPGDIGDFINEGLKAADNDPTAPPYDSLLVFDYEGSGSTAGSLSSLNSSSSGGDQDYDYLNDWGPRFKKLADMYGGGDD
B1: in experiment [2], the binding result is reported as “binds”.
